Reference: the supplement of paper PMC10849652
The list shows a part of the results.

Protein sequences, listed by entry. Tags and fused reporters are not part of them. Lines headed by an entry give the natural chain unless they say otherwise; changes in a name come on top.
UniProt P13010: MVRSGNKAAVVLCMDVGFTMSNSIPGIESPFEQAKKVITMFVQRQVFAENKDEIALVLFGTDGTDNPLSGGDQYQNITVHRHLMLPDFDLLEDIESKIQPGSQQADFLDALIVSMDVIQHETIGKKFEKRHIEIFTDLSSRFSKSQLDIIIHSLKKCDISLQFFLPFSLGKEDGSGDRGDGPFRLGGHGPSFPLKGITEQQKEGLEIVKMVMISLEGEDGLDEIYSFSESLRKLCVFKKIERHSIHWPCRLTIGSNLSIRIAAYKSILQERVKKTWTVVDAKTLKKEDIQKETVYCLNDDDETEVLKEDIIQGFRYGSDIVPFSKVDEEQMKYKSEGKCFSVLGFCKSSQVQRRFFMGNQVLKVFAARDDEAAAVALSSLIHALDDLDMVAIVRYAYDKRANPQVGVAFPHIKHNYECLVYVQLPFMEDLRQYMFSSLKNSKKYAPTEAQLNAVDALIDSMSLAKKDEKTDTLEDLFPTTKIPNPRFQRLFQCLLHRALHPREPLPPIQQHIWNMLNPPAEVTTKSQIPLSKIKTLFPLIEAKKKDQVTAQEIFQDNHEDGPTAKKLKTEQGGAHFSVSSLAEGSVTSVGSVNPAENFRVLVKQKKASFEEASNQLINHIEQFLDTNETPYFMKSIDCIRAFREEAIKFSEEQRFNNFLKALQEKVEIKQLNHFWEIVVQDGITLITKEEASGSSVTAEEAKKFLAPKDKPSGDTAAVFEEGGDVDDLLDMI
UniProt Q9NQH7: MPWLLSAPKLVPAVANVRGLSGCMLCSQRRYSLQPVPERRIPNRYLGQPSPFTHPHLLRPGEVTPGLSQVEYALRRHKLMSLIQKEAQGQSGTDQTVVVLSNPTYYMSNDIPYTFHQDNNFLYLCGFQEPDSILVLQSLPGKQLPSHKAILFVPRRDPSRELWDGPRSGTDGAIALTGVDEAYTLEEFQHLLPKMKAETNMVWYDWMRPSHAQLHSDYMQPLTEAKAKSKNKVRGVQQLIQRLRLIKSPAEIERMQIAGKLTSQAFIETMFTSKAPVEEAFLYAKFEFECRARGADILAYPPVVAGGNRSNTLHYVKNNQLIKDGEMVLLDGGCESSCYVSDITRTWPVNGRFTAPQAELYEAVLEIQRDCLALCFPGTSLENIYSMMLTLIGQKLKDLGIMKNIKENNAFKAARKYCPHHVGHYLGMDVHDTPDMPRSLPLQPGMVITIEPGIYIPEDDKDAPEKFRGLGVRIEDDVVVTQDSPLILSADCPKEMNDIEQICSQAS
UniProt P27348: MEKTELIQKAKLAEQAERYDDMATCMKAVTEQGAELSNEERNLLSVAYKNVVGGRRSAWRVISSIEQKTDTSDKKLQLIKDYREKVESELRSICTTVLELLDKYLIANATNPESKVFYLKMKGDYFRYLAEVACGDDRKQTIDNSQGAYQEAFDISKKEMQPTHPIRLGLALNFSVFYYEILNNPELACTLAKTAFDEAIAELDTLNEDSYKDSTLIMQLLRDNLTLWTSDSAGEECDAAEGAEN
UniProt Q5VZL5: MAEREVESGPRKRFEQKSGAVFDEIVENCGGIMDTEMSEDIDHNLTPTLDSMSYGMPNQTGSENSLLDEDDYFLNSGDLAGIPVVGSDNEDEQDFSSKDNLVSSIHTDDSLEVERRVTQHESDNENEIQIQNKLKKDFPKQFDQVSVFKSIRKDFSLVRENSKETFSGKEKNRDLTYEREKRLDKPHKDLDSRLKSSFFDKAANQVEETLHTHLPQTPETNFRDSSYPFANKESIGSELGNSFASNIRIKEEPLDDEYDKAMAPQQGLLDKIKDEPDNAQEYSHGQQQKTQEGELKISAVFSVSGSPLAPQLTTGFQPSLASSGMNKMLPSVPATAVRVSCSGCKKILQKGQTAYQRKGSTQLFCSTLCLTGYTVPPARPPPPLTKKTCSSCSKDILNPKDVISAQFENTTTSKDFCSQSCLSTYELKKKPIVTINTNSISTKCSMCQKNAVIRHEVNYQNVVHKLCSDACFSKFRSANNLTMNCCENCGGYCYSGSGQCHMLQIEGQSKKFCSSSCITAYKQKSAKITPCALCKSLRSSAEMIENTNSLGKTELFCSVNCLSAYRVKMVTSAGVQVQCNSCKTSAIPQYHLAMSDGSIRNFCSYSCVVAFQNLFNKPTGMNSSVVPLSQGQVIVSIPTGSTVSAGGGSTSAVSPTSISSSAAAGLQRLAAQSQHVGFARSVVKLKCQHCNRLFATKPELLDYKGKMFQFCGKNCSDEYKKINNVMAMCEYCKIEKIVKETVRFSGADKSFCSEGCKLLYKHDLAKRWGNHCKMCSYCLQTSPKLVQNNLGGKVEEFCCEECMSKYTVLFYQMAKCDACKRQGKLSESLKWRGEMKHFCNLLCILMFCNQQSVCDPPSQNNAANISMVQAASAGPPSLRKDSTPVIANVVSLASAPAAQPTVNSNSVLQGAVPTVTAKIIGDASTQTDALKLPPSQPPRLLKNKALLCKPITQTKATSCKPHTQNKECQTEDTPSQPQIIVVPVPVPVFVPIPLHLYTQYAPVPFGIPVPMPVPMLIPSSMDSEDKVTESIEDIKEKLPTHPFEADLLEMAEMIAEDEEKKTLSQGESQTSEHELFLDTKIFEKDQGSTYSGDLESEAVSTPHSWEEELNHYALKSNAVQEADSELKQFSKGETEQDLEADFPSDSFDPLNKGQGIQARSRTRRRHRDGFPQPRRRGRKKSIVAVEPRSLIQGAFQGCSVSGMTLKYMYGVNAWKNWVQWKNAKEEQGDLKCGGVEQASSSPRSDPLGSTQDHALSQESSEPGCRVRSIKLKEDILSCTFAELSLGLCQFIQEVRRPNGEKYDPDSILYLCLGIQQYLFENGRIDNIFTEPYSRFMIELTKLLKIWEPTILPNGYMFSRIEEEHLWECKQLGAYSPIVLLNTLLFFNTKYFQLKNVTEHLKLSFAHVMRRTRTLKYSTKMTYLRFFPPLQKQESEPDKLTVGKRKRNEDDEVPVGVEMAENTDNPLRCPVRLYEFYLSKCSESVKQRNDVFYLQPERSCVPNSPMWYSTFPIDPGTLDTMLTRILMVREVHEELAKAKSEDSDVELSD
UniProt Q86UP3: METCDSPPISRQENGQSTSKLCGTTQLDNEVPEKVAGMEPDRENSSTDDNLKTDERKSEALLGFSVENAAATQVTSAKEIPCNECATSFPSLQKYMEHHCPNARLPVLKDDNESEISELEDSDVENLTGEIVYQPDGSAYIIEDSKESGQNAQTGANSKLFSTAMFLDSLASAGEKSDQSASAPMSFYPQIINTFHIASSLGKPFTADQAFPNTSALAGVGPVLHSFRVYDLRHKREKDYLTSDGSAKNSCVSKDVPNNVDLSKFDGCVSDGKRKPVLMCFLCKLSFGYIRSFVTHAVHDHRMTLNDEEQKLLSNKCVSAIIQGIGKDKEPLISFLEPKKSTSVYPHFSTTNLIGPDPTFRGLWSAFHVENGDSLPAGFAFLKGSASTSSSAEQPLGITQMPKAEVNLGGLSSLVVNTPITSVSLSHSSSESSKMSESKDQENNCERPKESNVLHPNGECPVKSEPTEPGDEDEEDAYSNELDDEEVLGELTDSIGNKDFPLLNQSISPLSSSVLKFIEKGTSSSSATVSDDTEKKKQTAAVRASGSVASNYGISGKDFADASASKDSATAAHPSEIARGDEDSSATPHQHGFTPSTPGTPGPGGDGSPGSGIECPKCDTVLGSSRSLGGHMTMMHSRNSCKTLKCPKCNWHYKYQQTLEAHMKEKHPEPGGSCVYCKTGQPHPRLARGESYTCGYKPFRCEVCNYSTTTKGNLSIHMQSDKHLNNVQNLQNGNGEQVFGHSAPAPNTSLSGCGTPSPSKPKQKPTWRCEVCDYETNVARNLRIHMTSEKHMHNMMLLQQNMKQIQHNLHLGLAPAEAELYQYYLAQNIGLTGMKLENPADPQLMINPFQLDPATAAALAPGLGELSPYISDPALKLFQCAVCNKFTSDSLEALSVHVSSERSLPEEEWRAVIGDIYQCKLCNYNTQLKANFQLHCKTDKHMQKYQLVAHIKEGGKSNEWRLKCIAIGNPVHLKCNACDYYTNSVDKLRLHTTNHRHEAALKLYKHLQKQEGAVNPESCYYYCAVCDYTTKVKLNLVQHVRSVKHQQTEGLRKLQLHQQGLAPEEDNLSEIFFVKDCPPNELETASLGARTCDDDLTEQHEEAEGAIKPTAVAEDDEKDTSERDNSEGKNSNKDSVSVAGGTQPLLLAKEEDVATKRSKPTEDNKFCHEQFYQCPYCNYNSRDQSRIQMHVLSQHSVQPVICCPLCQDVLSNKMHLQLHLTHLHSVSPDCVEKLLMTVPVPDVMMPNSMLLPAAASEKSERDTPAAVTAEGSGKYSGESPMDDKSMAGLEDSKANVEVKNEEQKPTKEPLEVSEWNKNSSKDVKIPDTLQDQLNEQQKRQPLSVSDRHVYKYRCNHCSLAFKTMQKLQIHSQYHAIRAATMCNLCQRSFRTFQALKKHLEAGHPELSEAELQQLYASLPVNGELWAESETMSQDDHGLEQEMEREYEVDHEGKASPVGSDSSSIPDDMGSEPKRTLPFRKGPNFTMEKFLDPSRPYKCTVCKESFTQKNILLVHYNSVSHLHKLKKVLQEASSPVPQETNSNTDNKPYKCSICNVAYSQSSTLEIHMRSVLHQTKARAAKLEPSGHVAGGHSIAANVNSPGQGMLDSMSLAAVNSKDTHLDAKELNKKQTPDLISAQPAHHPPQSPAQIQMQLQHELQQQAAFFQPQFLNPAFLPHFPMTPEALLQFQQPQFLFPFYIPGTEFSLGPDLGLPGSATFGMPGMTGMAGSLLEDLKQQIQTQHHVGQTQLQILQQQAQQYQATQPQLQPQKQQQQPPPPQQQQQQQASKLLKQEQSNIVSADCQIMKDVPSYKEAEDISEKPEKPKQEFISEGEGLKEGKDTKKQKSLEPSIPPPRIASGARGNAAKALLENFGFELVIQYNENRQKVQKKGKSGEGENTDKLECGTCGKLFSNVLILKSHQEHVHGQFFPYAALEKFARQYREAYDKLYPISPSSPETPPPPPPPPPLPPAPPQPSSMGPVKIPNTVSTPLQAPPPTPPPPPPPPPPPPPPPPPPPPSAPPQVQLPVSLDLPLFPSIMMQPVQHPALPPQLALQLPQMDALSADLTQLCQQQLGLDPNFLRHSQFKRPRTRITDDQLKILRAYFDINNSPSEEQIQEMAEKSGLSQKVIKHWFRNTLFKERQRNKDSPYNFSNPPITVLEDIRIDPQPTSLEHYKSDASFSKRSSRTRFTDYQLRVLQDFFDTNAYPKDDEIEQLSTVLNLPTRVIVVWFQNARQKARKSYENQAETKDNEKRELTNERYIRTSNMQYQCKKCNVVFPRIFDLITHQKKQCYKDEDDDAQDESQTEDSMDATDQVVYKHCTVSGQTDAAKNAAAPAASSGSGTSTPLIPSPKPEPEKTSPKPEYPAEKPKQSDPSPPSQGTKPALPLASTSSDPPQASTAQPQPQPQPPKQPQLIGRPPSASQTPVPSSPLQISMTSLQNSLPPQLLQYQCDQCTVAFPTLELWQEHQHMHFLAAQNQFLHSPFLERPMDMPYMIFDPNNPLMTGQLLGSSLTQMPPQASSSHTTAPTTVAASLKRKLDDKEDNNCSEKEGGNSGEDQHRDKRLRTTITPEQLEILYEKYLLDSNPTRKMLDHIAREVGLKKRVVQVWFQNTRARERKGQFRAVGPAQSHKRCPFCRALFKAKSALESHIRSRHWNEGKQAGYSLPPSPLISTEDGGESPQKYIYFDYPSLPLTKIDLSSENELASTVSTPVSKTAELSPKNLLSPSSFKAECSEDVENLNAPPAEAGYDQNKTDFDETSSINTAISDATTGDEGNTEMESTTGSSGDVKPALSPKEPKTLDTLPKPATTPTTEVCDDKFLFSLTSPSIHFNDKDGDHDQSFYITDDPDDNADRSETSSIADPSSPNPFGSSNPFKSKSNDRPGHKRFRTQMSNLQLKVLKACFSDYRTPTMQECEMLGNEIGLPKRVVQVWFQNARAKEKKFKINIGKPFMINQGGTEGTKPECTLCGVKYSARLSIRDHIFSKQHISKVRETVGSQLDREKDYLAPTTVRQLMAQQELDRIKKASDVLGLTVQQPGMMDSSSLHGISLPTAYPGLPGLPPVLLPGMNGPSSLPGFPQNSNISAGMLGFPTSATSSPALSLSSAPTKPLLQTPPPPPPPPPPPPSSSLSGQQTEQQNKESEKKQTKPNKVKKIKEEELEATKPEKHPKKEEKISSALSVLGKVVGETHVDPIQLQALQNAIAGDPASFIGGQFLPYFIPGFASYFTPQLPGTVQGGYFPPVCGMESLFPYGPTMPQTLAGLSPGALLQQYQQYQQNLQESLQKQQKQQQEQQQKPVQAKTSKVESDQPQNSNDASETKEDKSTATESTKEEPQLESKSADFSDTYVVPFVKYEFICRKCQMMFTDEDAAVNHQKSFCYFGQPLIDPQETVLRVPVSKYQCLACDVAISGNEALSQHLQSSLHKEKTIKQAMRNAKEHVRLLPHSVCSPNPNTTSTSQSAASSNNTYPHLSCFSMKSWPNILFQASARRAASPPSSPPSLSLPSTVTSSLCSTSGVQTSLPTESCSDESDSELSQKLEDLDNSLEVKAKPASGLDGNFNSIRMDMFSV

Assays:
Experiment in all cases: log2 fold change, soluble protein after heating vs DMSO (PISA); higher = thermal stabilisation; K562 cells, 10 uM, 30 min; active = over 0.2 and 3.5 SD of the protein, either way, in both replicates (recomputed)
[1] = compound: CC1=C(C=C(C=C1)NC(=O)C2=CC(=CC=C2)C(C)(C)C#N)NC3=CC4=C(C=C3)N=CN(C4=O)C
Summary of the method: (§1)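 Soluble protein was quantified by TMTpro 16plex LC-MS/MS after channel sums were equalised. It was obtained as the supernatant after 21,000xg for 90 min from pooled aliquots of K562 cells (2×10^6 cells/mL, 10 μM compound, 30 min) heated for 3 min across 48°C-58°C and extracted in PBS with 0.5% NP-40 at 4°C. Thermal stability values are relative to control samples and come from duplicates. They are given as log2 fold changes.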

[2] = compound: CC1=C(C=C(C=C1)NC(=O)C2=CC(=CC=C2)N(C)C)NC(=O)C3=CC=C(C=C3)O
Summary of the method: as §1

[3] = compound: CC1=CC=C(C=C1)SC2=C3C=C(SC3=CN=C2)C(=O)N
Summary of the method: as §1

[4] = compound: CC1=NC(=CC=C1)C2=C(N=C(N2)C(C)(C)C)C3=CC4=NC=CN=C4C=C3
Summary of the method: as §1

[5] = compound: CCCCN(Cc1ccc(C(=O)NO)cc1)C(=O)Nc1ccccc1 [Nexturastat A]
Summary of the method: as §1

[6] = compound: CCCS(=O)(=O)Nc1ccc(F)c(C(=O)c2c[nH]c3ncc(-c4ccc(Cl)cc4)cc23)c1F [vemurafenib]
Summary of the method: as §1

[7] = compound: CCCS(=O)(=O)Nc1ccc(F)c(C(=O)c2c[nH]c3ncc(Cl)cc23)c1F
Summary of the method: as §1

[8] = compound: CCCc1cc(C)[nH]c(=O)c1CNC(=O)c1cc(-c2ccnc(N3CCN(C)CC3)c2)cc2c1cnn2C(C)C
Summary of the method: as §1

[9] = compound: CCN(CC)Cc1ccc2cc(COC(=O)Nc3ccc(C(=O)NO)cc3)ccc2c1 [givinostat]
Summary of the method: as §1

[10] = compound: CCN(CCCOc1ccc2c(Nc3cc(CC(=O)Nc4cccc(F)c4)[nH]n3)ncnc2c1)CCOP(=O)(O)O [barasertib]
Summary of the method: as §1

[11] = compound: CC[C@@H]1C(=O)N(C)c2cnc(Nc3ccc(C(=O)NC4CCN(C)CC4)cc3OC)nc2N1C1CCCC1
Summary of the method: as §1

[12] = compound: CC[C@@H]1C(=O)N(C)c2cnc(Nc3ccc(C(=O)N[C@H]4CC[C@H](N5CCN(CC6CC6)CC5)CC4)cc3OC)nc2N1C(C)C [volasertib]
Summary of the method: as §1

[13] = compound: CC[C@H](C)N1C=C(C2=C(C=C(C=C21)C3=CN=C(C=C3)N4CCNCC4)C(=O)NCC5=C(C=C(NC5=O)C)C)C
Summary of the method: as §1

[14] = compound: CC[C@H](C)[C@@H](C(=O)N[C@@H]([C@@H](C)O)C(=O)N[C@@H](CC(C)C)C(=O)[C@]1(CO1)C)NC(=O)[C@H]([C@@H](C)CC)N(C)C(=O)C [epoxomicin]
Summary of the method: as §1

[15] = compound: CCn1cc(-c2ccnc3[nH]c(-c4cccc(CN(C)C)c4)cc23)c(-c2ccc(NC(=O)N(C)C)cc2)n1
Summary of the method: as §1

[16] = compound: CN(C)CC(=O)Nc1ccc2[nH]c(=O)c3ccccc3c2c1
Summary of the method: as §1

[17] = compound: CN1C2=C(C3=C1C(=O)N(N=C3)CC4=CC(=CC=C4)N)SC(=C2)S(=O)C
Summary of the method: as §1

[18] = compound: CN1CCC(CNc2ccc3ncc(-c4cccc(OC(F)(F)F)c4)n3n2)CC1
Summary of the method: as §1

[19] = compound: CCn1c(C(=O)N(C2CC2)C2CC2)cc2c3c(ncn3C)c(Nc3cc(C)n(C)n3)nc21
Summary of the method: as §1

[20] = compound: CN(CCOC1=CC=C(C=C1)C[C@H]2C(=O)NC(=O)S2)C3=CC=CC=N3 (racemic) [rosiglitazone]
Summary of the method: as §1

Target	log2 fold change [1]	log2 fold change [2]	log2 fold change [3]	log2 fold change [4]	log2 fold change [5]	log2 fold change [6]	log2 fold change [7]	log2 fold change [8]	log2 fold change [9]	log2 fold change [10]	log2 fold change [11]	log2 fold change [12]	log2 fold change [13]	log2 fold change [14]	log2 fold change [15]	log2 fold change [16]	log2 fold change [17]	log2 fold change [18]	log2 fold change [19]	log2 fold change [20]
XRCC5 (UniProt P13010)	inactive: 0.073	inactive: -0.08	inactive: 0.044	inactive: 0.143	inactive: 0.033	inactive: 0.115	inactive: 0.189	inactive: 0.109	inactive: 0.234	inactive: 0.143	inactive: -0.172	inactive: -0.482	inactive: 0.207	inactive: 0.069	inactive: 0.009	inactive: 0.169	inactive: 0.124	inactive: -0.087	–	–
YAE1 (UniProt Q9NRH1)	inactive: 0.056	inactive: 0.009	inactive: -0.012	inactive: 0.019	inactive: 0.564	inactive: 0.019	inactive: -0.037	inactive: -0.083	inactive: -0.017	inactive: 0.097	inactive: -0.022	inactive: -0.101	inactive: 0.02	inactive: 0.118	inactive: -0.015	inactive: -0.108	inactive: 0.046	inactive: 0.057	–	–
YOD1 (UniProt Q5VVQ6)	inactive: 0.067	inactive: -0.028	inactive: 0.009	inactive: 0.026	inactive: -0.011	inactive: -0.001	inactive: 0.033	inactive: -0.017	inactive: 0.024	inactive: 0.051	inactive: -0.099	inactive: -0.247	inactive: 0.081	inactive: 0.051	inactive: -0.101	inactive: 0.043	inactive: -0.04	active: -0.305	–	–
ZMAT2 (UniProt Q96NC0)	inactive: 0.209	inactive: 0	inactive: 0.113	inactive: 0.088	inactive: -0.011	inactive: -0.021	inactive: -0.008	inactive: -0.044	inactive: -0.008	inactive: -0.047	inactive: 0.017	inactive: 0.036	inactive: -0.073	inactive: 0.103	inactive: 0.022	inactive: -0.018	inactive: -0.034	inactive: 0.008	–	–
XPNPEP3 (UniProt Q9NQH7)	inactive: -0.045	inactive: 0.024	inactive: 0.005	inactive: 0.017	inactive: -0.08	inactive: 0.011	inactive: -0.012	inactive: 0.013	inactive: -0.218	inactive: -0.016	inactive: 0.046	inactive: 0.075	inactive: 0.069	inactive: 0.075	inactive: -0.076	inactive: -0.004	inactive: -0.022	inactive: 0.012	–	–
XPOT (UniProt O43592)	inactive: 0.018	inactive: -0.031	inactive: 0.023	inactive: 0.029	inactive: -0.012	inactive: 0.039	inactive: 0.128	inactive: 0.014	inactive: 0.007	inactive: 0.08	active: -0.363	active: -0.855	inactive: 0.04	inactive: -0.033	inactive: 0.021	inactive: 0.058	inactive: -0.028	inactive: -0.16	–	–
YWHAQ (UniProt P27348)	inactive: 0.184	inactive: -0.023	inactive: 0.079	inactive: 0.05	inactive: -0.063	inactive: 0.284	inactive: 0.233	inactive: 0.241	inactive: -0.039	inactive: 0.006	inactive: -0.141	inactive: -0.073	inactive: 0.072	inactive: 0.111	inactive: 0.143	inactive: 0.16	inactive: -0.167	inactive: 0.585	–	–
XXYLT1 (UniProt Q8NBI6)	inactive: 0.065	inactive: 0.005	inactive: -0.009	inactive: 0.068	inactive: -0.063	inactive: 0.003	inactive: 0.05	inactive: -0.035	inactive: -0.146	inactive: -0.022	inactive: 0.061	inactive: -0.018	inactive: -0.008	inactive: -0.024	inactive: -0.047	inactive: -0.024	inactive: -0.033	inactive: 0.154	inactive: -0.01	inactive: 0.054
ZNF143 (UniProt P52747)	inactive: -0.023	inactive: 0.023	inactive: -0.042	inactive: 0.021	inactive: 0.19	inactive: 0.029	inactive: 0.063	inactive: -0.006	inactive: -0.022	inactive: 0.01	inactive: -0.018	active: -0.289	inactive: 0.068	inactive: 0.026	inactive: -0.102	inactive: -0.025	inactive: -0.003	inactive: -0.109	–	–
YBX3 isoform 2 (UniProt P16989)	inactive: 0.046	inactive: 0.105	inactive: -0.347	inactive: -0.183	inactive: 0.248	inactive: -0.119	inactive: -0.336	inactive: 0.058	inactive: -0.009	inactive: -0.03	inactive: 0.371	inactive: 0.252	inactive: -0.1	inactive: -0.241	–	inactive: -0.201	inactive: 0.247	–	inactive: 0.049	inactive: -0.154
ZCCHC8 (UniProt Q6NZY4)	inactive: -0.007	inactive: 0.007	inactive: 0.016	inactive: -0.001	inactive: -0.001	inactive: -0.021	inactive: -0.015	inactive: -0.002	inactive: -0.037	inactive: -0.025	inactive: 0.046	inactive: 0.107	inactive: 0.012	inactive: 0.036	inactive: -0.036	inactive: -0.004	inactive: -0.039	inactive: -0.027	inactive: 0.021	inactive: 0.035
ZFC3H1 (UniProt O60293)	inactive: 0.016	inactive: 0.019	–	–	–	–	–	inactive: -0.266	–	inactive: 0.034	inactive: -0.075	–	inactive: -0.172	–	–	–	–	–	–	inactive: 0.265
ZDHHC4 (UniProt Q9NPG8)	inactive: 0.065	–	inactive: -0.052	inactive: 0.01	inactive: -0.001	inactive: 0.014	inactive: -0.006	inactive: 0.137	inactive: -0.025	inactive: 0.277	–	inactive: 0.069	–	inactive: -0.136	–	inactive: 0.134	–	–	inactive: -0.094	inactive: 0.077
ZMYM1 (UniProt Q5SVZ6)	inactive: -0.071	inactive: 0.051	inactive: 0.061	inactive: 0.042	inactive: 0.059	inactive: -0.095	inactive: -0.006	inactive: -0.017	inactive: 0.12	inactive: 0.022	inactive: 0.202	inactive: -0.118	inactive: -0.016	inactive: -0.05	inactive: 0.141	inactive: -0.046	inactive: -0.014	inactive: 0.086	–	–
ZDHHC16 (UniProt Q969W1)	inactive: -0.222	–	–	–	–	inactive: -0.139	–	–	inactive: -0.095	–	inactive: -0.006	–	inactive: -0.068	–	–	inactive: -0.143	–	–	inactive: 0.029	–
ZNF106 (UniProt Q9H2Y7)	inactive: -0.024	–	inactive: -0.113	–	–	inactive: 0.018	inactive: 0.013	–	–	inactive: 0.022	inactive: 0.138	inactive: 0.289	inactive: 0.014	–	–	inactive: -0.063	inactive: -0.007	–	–	inactive: 0.021
YIPF1 (UniProt Q9Y548)	inactive: -0.23	–	inactive: -0.018	–	–	inactive: -0.089	inactive: 0.024	inactive: 0.081	inactive: 0.004	inactive: -0.093	inactive: 0.062	inactive: -0.018	inactive: -0.034	–	–	inactive: -0.049	–	–	inactive: 0.027	inactive: 0.09
ZMYM4 (UniProt Q5VZL5)	inactive: 0.107	inactive: -0.027	–	inactive: -0.238	inactive: -0.211	inactive: -0.028	–	inactive: 0.034	inactive: -0.042	inactive: 0.094	inactive: -0.052	–	inactive: 0.023	inactive: -0.048	inactive: 0.076	inactive: -0.025	–	inactive: 0.093	inactive: 0.008	inactive: 0.038
ZFHX4 isoform 5 (UniProt Q86UP3)	inactive: -0.051	–	–	inactive: 0.066	–	–	–	–	inactive: -0.076	–	–	–	inactive: 0.099	–	–	–	–	–	inactive: -0.029	–
ZEB1 isoform 2 (UniProt P37275)	inactive: 0.011	–	inactive: -0.062	inactive: 0.057	–	inactive: -0.12	inactive: 0.057	inactive: -0.002	inactive: 0.049	inactive: 0.012	inactive: 0.006	inactive: 0.108	inactive: 0.053	–	inactive: -0.003	inactive: 0.065	inactive: 0.021	inactive: 0.13	inactive: -0.068	inactive: 0.028

Record cards, from the list above. Values in the order: log2 fold change [1]	log2 fold change [2]	log2 fold change [3]	log2 fold change [4]	log2 fold change [5]	log2 fold change [6]	log2 fold change [7]	log2 fold change [8]	log2 fold change [9]	log2 fold change [10]	log2 fold change [11]	log2 fold change [12]	log2 fold change [13]	log2 fold change [14]	log2 fold change [15]	log2 fold change [16]	log2 fold change [17]	log2 fold change [18]	log2 fold change [19]	log2 fold change [20]
ZDHHC16 (UniProt Q969W1) is entered as inactive: -0.222	–	–	–	–	inactive: -0.139	–	–	inactive: -0.095	–	inactive: -0.006	–	inactive: -0.068	–	–	inactive: -0.143	–	–	inactive: 0.029	–
ZMAT2 (UniProt Q96NC0) is entered as inactive: 0.209	inactive: 0	inactive: 0.113	inactive: 0.088	inactive: -0.011	inactive: -0.021	inactive: -0.008	inactive: -0.044	inactive: -0.008	inactive: -0.047	inactive: 0.017	inactive: 0.036	inactive: -0.073	inactive: 0.103	inactive: 0.022	inactive: -0.018	inactive: -0.034	inactive: 0.008	–	–
